At least one compound was matched to its structure with a doubt left.
System: mo-iDC
Assay: Maturation of mo-iDC and IL-10 secretion by mo-iDC
Type: cell-based, human
Conditions: in the presence of butyrate

CCCC(=O)O [butyrate]
secretion of IL-10 by iDC matured with F. prausnitzii: increased | maturation of iDC induced by F. prausnitzii (decreased expression of CD80 and CD83, not of CD86 and HLA-DR): inhibited

Source: patent US20160139123A1, “Shear Wave Imaging Method and Installation for Collecting Information on a Soft Solid” (INSTITUT NATIONAL DE LA SANTE ET DE LA RECHERCHE MEDICALE …, priority 2013, published 2016)
